No constants are given. Whether binding was seen depends on the method and setting. For some assays here: In cells and extracts the contact can be indirect. Some binding calls cover weakened binding; strength is not graded here.
Key:
[1] = target: Integrin αIIbβ3 (mouse platelets) (mouse (endogenous in platelets)) (UniProt Q9QUM0+O54890); test: flow cytometry on cells; washed platelets from WT and β3-null mice (2 × 10^7/mL) preincubated with FITC-conjugated ERp18-WT for 10 minutes at room temperature, then 0.1 U/mL thrombin or 2 mM Mn2+ for 5 minutes; surface-bound FITC-ERp18 read; only the binder purified
[2] = target: Integrin αIIbβ3 (human platelets) (human (endogenous in platelets)) (UniProt P08514+P05106); test: co-IP; washed human platelets (1 × 10^9/mL) stimulated with thrombin (0.5 U/mL) for the indicated times, NP-40 lysis; anti-β3 antibody SZ-21 and protein G, control IgG in parallel; blot with goat anti-ERp18 and anti-β3

Protein sequences, listed by entry. Tags and fused reporters are not part of them. Lines headed by an entry give the natural chain unless they say otherwise; changes in a name come on top. Residues count along the entry.
UniProt Q9QUM0: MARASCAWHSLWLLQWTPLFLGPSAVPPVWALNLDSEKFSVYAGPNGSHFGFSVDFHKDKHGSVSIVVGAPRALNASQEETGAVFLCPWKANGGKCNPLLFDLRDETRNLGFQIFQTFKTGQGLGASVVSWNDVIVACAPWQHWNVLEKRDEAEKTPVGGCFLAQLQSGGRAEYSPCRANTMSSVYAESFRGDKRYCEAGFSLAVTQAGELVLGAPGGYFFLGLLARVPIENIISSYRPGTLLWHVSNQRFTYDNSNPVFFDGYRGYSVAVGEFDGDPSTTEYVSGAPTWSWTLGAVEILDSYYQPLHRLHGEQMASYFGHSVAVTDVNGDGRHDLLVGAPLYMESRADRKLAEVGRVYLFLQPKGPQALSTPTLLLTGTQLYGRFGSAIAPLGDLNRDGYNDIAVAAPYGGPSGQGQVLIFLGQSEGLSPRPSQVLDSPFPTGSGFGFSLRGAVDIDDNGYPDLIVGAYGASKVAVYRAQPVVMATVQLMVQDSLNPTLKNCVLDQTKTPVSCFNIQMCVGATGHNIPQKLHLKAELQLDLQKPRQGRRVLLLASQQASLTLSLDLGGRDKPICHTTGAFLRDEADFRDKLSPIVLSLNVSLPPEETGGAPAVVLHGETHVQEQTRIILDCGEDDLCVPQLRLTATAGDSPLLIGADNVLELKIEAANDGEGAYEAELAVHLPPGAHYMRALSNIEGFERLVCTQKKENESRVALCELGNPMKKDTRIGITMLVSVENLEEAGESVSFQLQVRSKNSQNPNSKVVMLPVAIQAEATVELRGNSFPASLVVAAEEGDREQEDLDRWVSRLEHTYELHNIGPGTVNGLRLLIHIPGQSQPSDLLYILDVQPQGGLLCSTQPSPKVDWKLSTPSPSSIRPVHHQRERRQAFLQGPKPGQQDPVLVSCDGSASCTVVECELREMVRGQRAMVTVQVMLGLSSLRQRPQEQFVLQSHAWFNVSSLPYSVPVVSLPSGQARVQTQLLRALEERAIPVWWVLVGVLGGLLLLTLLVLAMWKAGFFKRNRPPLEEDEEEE
UniProt O54890: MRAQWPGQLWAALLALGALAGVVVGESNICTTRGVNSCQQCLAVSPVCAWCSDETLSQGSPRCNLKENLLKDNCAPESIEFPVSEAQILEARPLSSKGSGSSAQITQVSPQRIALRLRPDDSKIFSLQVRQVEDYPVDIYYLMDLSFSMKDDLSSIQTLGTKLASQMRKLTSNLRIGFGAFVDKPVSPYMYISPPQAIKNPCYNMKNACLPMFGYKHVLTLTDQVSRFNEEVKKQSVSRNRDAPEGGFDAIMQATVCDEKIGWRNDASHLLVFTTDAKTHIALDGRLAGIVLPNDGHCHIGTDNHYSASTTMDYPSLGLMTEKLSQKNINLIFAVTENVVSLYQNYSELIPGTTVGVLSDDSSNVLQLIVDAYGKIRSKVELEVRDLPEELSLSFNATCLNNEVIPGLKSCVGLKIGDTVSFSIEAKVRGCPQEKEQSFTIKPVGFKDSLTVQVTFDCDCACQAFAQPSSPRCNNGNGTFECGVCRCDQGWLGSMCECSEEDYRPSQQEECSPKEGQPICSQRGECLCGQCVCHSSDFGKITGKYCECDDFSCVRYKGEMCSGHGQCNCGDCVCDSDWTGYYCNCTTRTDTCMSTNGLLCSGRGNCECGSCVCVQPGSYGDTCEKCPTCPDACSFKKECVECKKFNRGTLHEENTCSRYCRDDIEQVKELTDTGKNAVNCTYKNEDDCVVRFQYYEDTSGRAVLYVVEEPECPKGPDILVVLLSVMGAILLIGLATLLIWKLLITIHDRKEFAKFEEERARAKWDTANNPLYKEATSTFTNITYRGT
UniProt P08514: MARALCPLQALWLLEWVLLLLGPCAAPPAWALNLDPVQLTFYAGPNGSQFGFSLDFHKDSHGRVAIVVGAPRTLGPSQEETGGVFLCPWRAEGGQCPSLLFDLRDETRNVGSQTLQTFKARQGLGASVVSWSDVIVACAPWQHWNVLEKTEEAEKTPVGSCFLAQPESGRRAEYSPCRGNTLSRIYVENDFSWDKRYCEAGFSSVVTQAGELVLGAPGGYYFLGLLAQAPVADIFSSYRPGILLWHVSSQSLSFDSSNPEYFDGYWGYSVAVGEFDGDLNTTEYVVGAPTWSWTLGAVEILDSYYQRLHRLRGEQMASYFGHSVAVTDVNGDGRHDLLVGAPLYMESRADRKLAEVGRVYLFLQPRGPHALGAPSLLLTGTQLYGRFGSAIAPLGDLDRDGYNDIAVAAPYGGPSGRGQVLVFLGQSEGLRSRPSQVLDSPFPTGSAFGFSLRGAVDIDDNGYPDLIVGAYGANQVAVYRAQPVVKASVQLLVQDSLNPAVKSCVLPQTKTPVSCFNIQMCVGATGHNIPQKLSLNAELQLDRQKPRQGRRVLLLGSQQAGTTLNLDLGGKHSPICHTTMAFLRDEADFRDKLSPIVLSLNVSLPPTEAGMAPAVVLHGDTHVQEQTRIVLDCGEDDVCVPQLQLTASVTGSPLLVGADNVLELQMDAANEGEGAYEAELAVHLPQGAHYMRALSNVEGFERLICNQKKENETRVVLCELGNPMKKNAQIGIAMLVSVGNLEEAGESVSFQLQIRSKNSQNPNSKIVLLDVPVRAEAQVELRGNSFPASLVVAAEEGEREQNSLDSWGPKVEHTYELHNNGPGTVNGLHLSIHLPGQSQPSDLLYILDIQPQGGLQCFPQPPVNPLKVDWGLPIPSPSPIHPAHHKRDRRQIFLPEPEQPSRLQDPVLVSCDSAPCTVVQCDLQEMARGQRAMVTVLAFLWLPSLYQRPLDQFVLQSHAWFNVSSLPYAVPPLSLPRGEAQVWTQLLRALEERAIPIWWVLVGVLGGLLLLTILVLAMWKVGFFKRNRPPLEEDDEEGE
UniProt P05106: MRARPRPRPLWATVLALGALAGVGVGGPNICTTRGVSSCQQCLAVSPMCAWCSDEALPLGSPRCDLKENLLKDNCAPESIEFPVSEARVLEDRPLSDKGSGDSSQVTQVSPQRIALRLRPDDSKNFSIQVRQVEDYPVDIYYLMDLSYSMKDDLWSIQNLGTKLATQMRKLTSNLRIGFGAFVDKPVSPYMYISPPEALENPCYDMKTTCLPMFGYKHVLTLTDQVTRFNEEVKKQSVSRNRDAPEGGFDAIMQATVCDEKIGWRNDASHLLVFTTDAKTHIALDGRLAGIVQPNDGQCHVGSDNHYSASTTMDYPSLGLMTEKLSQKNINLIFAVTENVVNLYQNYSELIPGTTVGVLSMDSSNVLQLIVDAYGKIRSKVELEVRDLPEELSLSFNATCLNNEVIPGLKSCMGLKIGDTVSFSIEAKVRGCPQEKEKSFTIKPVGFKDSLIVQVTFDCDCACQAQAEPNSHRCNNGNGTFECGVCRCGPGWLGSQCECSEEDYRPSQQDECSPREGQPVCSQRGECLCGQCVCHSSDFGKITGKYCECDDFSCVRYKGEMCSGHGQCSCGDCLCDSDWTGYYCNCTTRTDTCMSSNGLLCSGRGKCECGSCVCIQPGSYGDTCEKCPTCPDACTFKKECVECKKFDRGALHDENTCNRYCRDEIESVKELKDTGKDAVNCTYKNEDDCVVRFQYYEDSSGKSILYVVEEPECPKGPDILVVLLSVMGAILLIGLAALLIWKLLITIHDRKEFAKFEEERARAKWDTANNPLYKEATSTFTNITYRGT
UniProt O95881, residues 27-172: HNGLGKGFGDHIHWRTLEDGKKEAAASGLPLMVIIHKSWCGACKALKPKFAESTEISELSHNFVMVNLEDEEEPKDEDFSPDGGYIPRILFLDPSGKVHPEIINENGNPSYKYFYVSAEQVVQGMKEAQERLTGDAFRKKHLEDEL

Row | Substance | binding [1] | binding [2]
1 | Recombinant human ERp18 wild-type protein (CGAC) (from UniProt O95881 27-172) (enzyme) | binds | 
2 | ERp18 (endogenous, human platelets) (from UniProt O95881 27-172) (enzyme) |  | binds

Reference: publication PMC11986512
